The list shows a part of the results.
Experiments:
Experiment in all cases: log2 fold change, soluble protein after heating vs DMSO (PISA); higher = thermal stabilisation; K562 cells, 10 uM, 30 min; active = over 0.2 and 3.5 SD of the protein, either way, in both replicates (recomputed)
[1] = compound: CC1=C(C=C(C=C1)NC(=O)C2=CC(=CC=C2)C(C)(C)C#N)NC3=CC4=C(C=C3)N=CN(C4=O)C
Outline: (§1)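 Aliquots of K562 cells (2×10^6 cells/mL) treated with 10 μM compound for 30 min were heated for 3 min over 48°C-58°C. After pooling and extraction in PBS with 0.5% NP-40 at 4°C, soluble protein from a 21,000xg, 90 min spin was quantified by TMTpro 16plex LC-MS/MS with channel sums equalised. Thermal stability is expressed against control samples, from duplicates, as a log2 fold change.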

Amino acid sequences for entries named in this document (tags omitted). A change or cut given only in a name is not applied to a line headed by its entry.
UniProt Q9NXV2: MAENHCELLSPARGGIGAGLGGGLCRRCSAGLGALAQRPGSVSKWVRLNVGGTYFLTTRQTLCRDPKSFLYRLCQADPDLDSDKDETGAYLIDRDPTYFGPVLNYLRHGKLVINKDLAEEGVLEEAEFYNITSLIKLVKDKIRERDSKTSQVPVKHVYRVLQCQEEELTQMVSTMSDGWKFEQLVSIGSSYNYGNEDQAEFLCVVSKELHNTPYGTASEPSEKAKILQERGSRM
UniProt Q9Y448: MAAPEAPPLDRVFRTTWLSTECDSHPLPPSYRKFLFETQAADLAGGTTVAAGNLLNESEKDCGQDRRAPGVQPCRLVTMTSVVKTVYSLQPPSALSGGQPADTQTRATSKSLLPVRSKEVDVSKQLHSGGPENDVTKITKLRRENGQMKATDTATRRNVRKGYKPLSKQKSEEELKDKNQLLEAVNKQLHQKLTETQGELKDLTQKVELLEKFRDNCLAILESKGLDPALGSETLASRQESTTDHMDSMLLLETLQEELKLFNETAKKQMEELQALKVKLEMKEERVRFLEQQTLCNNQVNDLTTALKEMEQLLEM
UniProt P52333: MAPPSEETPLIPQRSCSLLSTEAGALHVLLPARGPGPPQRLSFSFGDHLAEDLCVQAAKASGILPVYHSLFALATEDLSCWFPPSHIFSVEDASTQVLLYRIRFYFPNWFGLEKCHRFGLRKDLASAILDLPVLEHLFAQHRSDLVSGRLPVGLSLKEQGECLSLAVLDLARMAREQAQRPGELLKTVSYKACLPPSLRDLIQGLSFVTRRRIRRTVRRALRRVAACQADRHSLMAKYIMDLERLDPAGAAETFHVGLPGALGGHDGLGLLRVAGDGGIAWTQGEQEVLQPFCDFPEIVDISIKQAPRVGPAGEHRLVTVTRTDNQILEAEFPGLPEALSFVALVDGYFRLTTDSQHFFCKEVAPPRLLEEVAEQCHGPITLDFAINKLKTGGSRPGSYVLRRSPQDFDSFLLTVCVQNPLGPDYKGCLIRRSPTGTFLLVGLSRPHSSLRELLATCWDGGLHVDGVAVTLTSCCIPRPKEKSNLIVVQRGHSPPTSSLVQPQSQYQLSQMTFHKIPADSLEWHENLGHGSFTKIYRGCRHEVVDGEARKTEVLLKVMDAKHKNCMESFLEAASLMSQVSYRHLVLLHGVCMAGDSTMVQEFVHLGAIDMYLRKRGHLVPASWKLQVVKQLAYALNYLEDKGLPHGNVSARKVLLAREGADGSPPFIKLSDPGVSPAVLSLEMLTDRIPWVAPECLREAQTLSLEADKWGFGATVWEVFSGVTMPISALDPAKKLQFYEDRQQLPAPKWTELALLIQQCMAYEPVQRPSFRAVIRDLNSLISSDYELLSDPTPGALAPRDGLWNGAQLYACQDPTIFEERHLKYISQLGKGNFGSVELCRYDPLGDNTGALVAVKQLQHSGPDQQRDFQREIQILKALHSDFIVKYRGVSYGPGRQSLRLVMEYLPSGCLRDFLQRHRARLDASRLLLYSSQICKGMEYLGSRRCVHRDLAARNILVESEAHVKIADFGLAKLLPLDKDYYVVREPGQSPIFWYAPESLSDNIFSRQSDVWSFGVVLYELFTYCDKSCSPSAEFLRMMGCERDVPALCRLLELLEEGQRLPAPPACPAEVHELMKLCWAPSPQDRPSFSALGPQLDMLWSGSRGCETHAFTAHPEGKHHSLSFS
UniProt Q8NC54: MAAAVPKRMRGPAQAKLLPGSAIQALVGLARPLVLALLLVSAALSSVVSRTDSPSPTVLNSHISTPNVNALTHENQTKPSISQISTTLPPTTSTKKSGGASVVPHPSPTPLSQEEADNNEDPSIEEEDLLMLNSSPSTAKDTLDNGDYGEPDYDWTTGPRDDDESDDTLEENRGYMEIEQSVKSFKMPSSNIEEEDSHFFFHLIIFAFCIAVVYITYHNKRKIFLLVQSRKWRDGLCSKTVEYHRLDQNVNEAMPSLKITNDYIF
UniProt Q9P206: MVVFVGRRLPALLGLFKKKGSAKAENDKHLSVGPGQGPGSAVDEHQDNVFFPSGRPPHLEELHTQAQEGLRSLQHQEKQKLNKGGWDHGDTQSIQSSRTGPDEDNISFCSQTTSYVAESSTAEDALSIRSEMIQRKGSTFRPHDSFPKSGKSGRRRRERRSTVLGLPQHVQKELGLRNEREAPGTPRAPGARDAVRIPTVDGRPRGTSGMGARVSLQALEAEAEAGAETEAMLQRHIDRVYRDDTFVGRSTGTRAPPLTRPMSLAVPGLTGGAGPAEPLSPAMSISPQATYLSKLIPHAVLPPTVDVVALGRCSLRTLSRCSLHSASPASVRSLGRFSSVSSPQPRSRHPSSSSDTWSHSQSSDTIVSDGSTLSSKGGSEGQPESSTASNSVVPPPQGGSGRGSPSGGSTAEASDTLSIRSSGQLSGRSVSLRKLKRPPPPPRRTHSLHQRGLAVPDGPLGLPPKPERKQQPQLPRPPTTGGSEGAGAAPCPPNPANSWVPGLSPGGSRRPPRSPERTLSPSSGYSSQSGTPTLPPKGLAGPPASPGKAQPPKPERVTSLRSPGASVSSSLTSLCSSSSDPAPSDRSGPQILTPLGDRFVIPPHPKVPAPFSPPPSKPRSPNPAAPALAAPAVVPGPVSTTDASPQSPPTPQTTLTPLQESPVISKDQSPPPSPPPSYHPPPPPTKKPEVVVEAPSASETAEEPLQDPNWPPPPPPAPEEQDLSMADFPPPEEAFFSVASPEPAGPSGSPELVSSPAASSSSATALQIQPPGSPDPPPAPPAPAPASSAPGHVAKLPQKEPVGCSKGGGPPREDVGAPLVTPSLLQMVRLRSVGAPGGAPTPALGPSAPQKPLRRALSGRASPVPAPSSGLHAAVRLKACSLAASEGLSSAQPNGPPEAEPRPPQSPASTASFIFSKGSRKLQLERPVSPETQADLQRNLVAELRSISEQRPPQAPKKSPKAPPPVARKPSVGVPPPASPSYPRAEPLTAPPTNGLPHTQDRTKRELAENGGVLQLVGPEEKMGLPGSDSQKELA
UniProt A8MWY0: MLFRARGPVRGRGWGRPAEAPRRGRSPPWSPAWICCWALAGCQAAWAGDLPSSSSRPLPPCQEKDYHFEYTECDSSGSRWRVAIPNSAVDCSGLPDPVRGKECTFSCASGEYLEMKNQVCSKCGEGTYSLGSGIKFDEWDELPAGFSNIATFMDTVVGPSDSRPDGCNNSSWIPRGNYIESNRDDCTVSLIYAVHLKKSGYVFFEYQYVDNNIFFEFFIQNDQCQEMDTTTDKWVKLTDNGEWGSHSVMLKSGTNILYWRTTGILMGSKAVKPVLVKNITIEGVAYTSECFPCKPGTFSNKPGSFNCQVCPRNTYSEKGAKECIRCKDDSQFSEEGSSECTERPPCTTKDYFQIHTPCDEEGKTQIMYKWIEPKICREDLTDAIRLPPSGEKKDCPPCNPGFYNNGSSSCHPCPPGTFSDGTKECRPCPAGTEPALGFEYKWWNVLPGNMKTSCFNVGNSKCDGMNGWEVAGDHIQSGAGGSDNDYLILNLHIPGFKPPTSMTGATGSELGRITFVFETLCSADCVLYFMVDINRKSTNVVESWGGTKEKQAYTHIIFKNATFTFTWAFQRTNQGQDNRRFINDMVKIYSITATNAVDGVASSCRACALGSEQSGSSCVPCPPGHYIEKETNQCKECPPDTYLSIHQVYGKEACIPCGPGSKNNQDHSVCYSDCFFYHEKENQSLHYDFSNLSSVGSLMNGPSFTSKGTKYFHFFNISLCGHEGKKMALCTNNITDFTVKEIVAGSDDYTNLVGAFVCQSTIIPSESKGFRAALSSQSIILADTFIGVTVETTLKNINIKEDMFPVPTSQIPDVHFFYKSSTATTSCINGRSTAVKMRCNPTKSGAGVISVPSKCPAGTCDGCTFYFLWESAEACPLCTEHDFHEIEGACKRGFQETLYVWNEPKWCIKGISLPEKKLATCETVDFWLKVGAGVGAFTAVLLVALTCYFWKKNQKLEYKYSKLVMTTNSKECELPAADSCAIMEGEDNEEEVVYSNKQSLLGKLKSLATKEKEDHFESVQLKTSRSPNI
UniProt O00139: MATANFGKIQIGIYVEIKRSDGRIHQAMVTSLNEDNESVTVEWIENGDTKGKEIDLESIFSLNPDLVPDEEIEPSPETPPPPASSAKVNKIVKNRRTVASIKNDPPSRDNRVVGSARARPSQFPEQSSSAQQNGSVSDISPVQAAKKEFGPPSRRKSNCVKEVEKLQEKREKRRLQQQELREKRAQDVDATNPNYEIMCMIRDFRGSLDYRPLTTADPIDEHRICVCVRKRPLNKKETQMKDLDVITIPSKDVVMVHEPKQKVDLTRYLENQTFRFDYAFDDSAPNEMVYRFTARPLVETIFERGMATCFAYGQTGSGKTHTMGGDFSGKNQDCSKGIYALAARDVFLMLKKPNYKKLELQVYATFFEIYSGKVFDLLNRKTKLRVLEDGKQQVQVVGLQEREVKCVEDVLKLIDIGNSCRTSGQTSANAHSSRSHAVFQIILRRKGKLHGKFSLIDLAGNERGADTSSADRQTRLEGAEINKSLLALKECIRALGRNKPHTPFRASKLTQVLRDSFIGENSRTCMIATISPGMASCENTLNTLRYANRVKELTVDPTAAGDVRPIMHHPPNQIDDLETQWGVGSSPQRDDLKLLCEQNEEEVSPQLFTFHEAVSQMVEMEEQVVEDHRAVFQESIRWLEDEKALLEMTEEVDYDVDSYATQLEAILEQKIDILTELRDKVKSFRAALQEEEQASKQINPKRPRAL
UniProt P52732: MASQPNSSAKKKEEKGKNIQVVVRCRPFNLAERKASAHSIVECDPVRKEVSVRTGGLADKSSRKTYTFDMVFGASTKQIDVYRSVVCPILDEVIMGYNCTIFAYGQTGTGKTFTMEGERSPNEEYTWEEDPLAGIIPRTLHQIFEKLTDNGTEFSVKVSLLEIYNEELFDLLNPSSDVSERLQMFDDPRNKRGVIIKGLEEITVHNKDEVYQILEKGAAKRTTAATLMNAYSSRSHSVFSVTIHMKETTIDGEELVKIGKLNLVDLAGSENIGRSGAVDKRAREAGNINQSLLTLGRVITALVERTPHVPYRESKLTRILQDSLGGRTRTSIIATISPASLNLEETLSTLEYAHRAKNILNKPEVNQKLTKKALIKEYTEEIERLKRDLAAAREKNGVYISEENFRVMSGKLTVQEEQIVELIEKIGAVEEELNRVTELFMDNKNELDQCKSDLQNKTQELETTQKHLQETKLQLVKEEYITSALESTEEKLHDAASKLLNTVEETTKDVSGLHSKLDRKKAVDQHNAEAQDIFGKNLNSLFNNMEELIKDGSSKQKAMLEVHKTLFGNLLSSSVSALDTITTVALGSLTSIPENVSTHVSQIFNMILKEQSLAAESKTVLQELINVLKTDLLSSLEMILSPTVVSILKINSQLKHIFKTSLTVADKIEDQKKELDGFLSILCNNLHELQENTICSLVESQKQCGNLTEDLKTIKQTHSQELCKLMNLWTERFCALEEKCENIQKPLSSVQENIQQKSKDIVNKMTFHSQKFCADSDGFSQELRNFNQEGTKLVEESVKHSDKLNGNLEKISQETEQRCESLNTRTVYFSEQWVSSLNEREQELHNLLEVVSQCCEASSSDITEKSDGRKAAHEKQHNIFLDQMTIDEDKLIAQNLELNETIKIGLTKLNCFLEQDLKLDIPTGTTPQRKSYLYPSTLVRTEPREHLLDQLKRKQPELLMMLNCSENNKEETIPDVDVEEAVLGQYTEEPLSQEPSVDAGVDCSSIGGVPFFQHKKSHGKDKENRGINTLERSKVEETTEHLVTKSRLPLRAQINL
UniProt Q9NQR1: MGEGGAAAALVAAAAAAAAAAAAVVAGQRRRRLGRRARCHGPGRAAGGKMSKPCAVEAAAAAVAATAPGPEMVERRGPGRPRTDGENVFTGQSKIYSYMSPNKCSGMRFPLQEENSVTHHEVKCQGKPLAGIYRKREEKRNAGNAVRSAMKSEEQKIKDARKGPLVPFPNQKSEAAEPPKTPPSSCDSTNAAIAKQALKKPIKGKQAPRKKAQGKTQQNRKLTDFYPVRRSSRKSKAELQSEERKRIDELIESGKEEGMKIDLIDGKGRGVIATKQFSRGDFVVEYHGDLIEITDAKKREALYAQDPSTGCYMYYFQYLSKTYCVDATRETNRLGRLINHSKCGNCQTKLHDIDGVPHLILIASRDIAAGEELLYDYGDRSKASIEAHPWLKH
UniProt O60870: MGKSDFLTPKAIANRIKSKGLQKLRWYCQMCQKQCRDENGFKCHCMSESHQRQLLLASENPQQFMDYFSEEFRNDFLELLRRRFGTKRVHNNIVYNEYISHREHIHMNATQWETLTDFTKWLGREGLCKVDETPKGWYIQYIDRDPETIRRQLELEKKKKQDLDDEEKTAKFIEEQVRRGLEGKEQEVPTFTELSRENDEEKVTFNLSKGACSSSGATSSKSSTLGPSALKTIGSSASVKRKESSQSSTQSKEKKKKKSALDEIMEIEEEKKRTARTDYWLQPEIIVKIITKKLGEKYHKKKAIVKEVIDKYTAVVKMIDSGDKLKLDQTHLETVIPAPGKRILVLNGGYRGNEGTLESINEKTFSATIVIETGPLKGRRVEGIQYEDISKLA

[2] = compound: CC1=C(C=C(C=C1)NC(=O)C2=CC(=CC=C2)N(C)C)NC(=O)C3=CC=C(C=C3)O
Outline: as §1

[3] = compound: CC1=CC=C(C=C1)SC2=C3C=C(SC3=CN=C2)C(=O)N
Outline: as §1

[4] = compound: CC1=NC(=CC=C1)C2=C(N=C(N2)C(C)(C)C)C3=CC4=NC=CN=C4C=C3
Outline: as §1

[5] = compound: CCCCN(Cc1ccc(C(=O)NO)cc1)C(=O)Nc1ccccc1 [Nexturastat A]
Outline: as §1

[6] = compound: CCCS(=O)(=O)Nc1ccc(F)c(C(=O)c2c[nH]c3ncc(-c4ccc(Cl)cc4)cc23)c1F [vemurafenib]
Outline: as §1

[7] = compound: CCCS(=O)(=O)Nc1ccc(F)c(C(=O)c2c[nH]c3ncc(Cl)cc23)c1F
Outline: as §1

[8] = compound: CCCc1cc(C)[nH]c(=O)c1CNC(=O)c1cc(-c2ccnc(N3CCN(C)CC3)c2)cc2c1cnn2C(C)C
Outline: as §1

[9] = compound: CCN(CC)Cc1ccc2cc(COC(=O)Nc3ccc(C(=O)NO)cc3)ccc2c1 [givinostat]
Outline: as §1

[10] = compound: CCN(CCCOc1ccc2c(Nc3cc(CC(=O)Nc4cccc(F)c4)[nH]n3)ncnc2c1)CCOP(=O)(O)O [barasertib]
Outline: as §1

| Target | log2 fold change [1] | log2 fold change [2] | log2 fold change [3] | log2 fold change [4] | log2 fold change [5] | log2 fold change [6] | log2 fold change [7] | log2 fold change [8] | log2 fold change [9] | log2 fold change [10] |
| --- | --- | --- | --- | --- | --- | --- | --- | --- | --- | --- |
| KCTD5 (UniProt Q9NXV2) | inactive: -0.022 | inactive: -0.04 | inactive: -0.041 | inactive: 0.125 | inactive: 0.068 | inactive: -0.036 | inactive: -0.012 | inactive: -0.054 | inactive: -0.037 | inactive: 0.019 |
| KDM1A isoform 2 (UniProt O60341) | inactive: -0.029 | inactive: 0.058 | inactive: 0.01 | inactive: 0.002 | inactive: 0.023 | inactive: -0.02 | inactive: 0.033 | inactive: 0.046 | inactive: 0.101 | inactive: 0.013 |
| KIF3A (UniProt Q9Y496) | inactive: -0.041 | inactive: -0.013 | inactive: -0.076 | inactive: 0 | inactive: 0.029 | inactive: -0.002 | inactive: 0.062 | inactive: 0.045 | inactive: 0.074 | inactive: -0.041 |
| KPNA2 (UniProt P52292) | inactive: 0.017 | inactive: 0.059 | inactive: -0.032 | inactive: -0.075 | inactive: 0.345 | inactive: 0.038 | inactive: -0.02 | inactive: 0.197 | inactive: 0.159 | inactive: 0.006 |
| KDM5D isoform 3 (UniProt Q9BY66) | inactive: -0.132 | inactive: -0.144 | inactive: 0.036 | inactive: 0.039 | inactive: -0.08 | inactive: 0.003 | inactive: 0.128 | inactive: -0.004 | inactive: 0.014 | inactive: 0.108 |
| KNSTRN (UniProt Q9Y448) | inactive: 0.009 | inactive: -0.018 | inactive: 0.045 | inactive: -0.042 | inactive: 0.202 | inactive: 0.031 | inactive: -0.027 | inactive: 0.072 | inactive: 0.014 | inactive: 0.009 |
| JAK3 (UniProt P52333) | inactive: -0.002 | inactive: -0.056 | inactive: 0.066 | inactive: 0.099 | active: -0.478 | inactive: -0.032 | inactive: -0.029 | inactive: 0.016 | inactive: -0.16 | inactive: 0.016 |
| KCT2 (UniProt Q8NC54) | inactive: 0.104 | inactive: 0.007 | inactive: 0.006 | inactive: 0.017 | inactive: -0.102 | inactive: -0.013 | inactive: -0.011 | inactive: -0.008 | inactive: -0.108 | inactive: -0.025 |
| KATNA1 (UniProt O75449) | inactive: -0.007 | inactive: -0.069 | inactive: -0.045 | inactive: -0.023 | inactive: 0.047 | inactive: -0.008 | inactive: -0.031 | inactive: 0.111 | inactive: -0.073 | inactive: 0.026 |
| KDM3B (UniProt Q7LBC6) | inactive: 0.024 | inactive: -0.041 | inactive: -0.032 | inactive: 0.037 | inactive: -0.045 | inactive: 0.049 | inactive: 0.031 | inactive: 0.041 | inactive: -0.001 | inactive: 0.082 |
| KIDINS220 (UniProt Q9ULH0) | inactive: -0.012 | inactive: -0.008 | inactive: -0.021 | inactive: -0.028 | inactive: -0.028 | inactive: -0.034 | inactive: -0.022 | inactive: 0.002 | inactive: -0.027 | inactive: 0.004 |
| KLC2 (UniProt Q9H0B6) | inactive: 0.025 | inactive: -0.055 | inactive: 0.021 | inactive: 0.015 | inactive: 0.001 | inactive: 0.012 | inactive: 0.096 | inactive: 0.001 | inactive: 0.044 | inactive: 0.006 |
| JPT2 isoform 3 (UniProt Q9H910) | inactive: -0.012 | inactive: -0.002 | inactive: -0.002 | inactive: 0.02 | inactive: -0.007 | inactive: -0.013 | inactive: -0.02 | inactive: 0.005 | inactive: -0.008 | inactive: 0.01 |
| KSR1 (UniProt Q8IVT5) | inactive: 0.231 | inactive: -0.007 | inactive: 0.112 | inactive: -0.028 | inactive: 0.001 | inactive: 0.046 | inactive: 0.218 | inactive: -0.132 | inactive: 0.106 | inactive: 0.013 |
| KCTD3 (UniProt Q9Y597) | inactive: -0.144 | inactive: 0.044 | inactive: -0.016 | inactive: 0.004 | inactive: 0.08 | inactive: -0.07 | inactive: -0.031 | inactive: -0.025 | inactive: -0.033 | inactive: -0.004 |
| KLC4 isoform 3 (UniProt Q9NSK0) | inactive: 0.112 | inactive: -0.05 | inactive: 0.011 | inactive: 0.101 | inactive: 0.073 | inactive: -0.014 | inactive: 0.04 | inactive: 0.046 | inactive: 0.064 | inactive: 0.003 |
| KHK isoform 2 (UniProt P50053) | inactive: 0.007 | inactive: 0.07 | inactive: -0.021 | inactive: -0.067 | inactive: -0.04 | inactive: -0.018 | inactive: 0.041 | inactive: -0.28 | inactive: -0.013 | inactive: 0.041 |

Whole records, quoted from the list. Values in the order: log2 fold change [1]	log2 fold change [2]	log2 fold change [3]	log2 fold change [4]	log2 fold change [5]	log2 fold change [6]	log2 fold change [7]	log2 fold change [8]	log2 fold change [9]	log2 fold change [10]
KSR1 (UniProt Q8IVT5) in the list: inactive: 0.231	inactive: -0.007	inactive: 0.112	inactive: -0.028	inactive: 0.001	inactive: 0.046	inactive: 0.218	inactive: -0.132	inactive: 0.106	inactive: 0.013
KPNA2 (UniProt P52292) in the list: inactive: 0.017	inactive: 0.059	inactive: -0.032	inactive: -0.075	inactive: 0.345	inactive: 0.038	inactive: -0.02	inactive: 0.197	inactive: 0.159	inactive: 0.006

Additional entries follow:

| Target | log2 fold change [1] | log2 fold change [2] | log2 fold change [3] | log2 fold change [4] | log2 fold change [5] | log2 fold change [6] | log2 fold change [7] | log2 fold change [8] | log2 fold change [9] | log2 fold change [10] |
| --- | --- | --- | --- | --- | --- | --- | --- | --- | --- | --- |
| KIAA1143 (UniProt Q96AT1) | inactive: -0.139 | inactive: -0.051 | inactive: -0.058 | inactive: -0.033 | inactive: 0.081 | inactive: -0.06 | inactive: -0.092 | inactive: -0.002 | inactive: 0.01 | inactive: 0.009 |
| KDM5C (UniProt P41229) | inactive: 0.033 | inactive: -0.116 | inactive: 0.044 | inactive: 0.063 | inactive: -0.09 | inactive: 0.06 | inactive: 0.119 | inactive: 0.07 | inactive: 0.005 | inactive: 0.024 |
| KCTD2 (UniProt Q14681) | inactive: -0.421 | inactive: 0.087 | inactive: -0.343 | inactive: -0.084 | inactive: 0.072 | inactive: -0.164 | inactive: -0.468 | inactive: -0.163 | inactive: 0.078 | inactive: 0.018 |
| KIAA1522 isoform 2 (UniProt Q9P206) | inactive: -0.035 | inactive: -0.047 | inactive: -0.079 | inactive: -0.001 | inactive: 0.187 | inactive: -0.135 | inactive: 0.007 | inactive: 0.152 | inactive: 0.078 | inactive: 0.005 |
| KCNAB2 (UniProt Q13303) | inactive: -0.026 | inactive: 0 | inactive: 0.001 | inactive: -0.014 | inactive: -0.02 | inactive: 0.054 | inactive: 0.026 | inactive: -0.083 | inactive: -0.007 | inactive: -0.037 |
| KIAA1324L (UniProt A8MWY0) | inactive: -0.065 | inactive: -0.022 | inactive: 0.028 | inactive: 0.002 | inactive: 0.045 | inactive: 0.002 | inactive: -0.048 | inactive: 0.05 | inactive: 0.032 | inactive: 0.002 |
| KIF2A isoform 4 (UniProt O00139) | inactive: -0.013 | inactive: -0.046 | inactive: -0.067 | inactive: -0.012 | inactive: 0.11 | inactive: -0.067 | inactive: 0.026 | inactive: 0.094 | inactive: 0.048 | inactive: -0.021 |
| KIF11 (UniProt P52732) | inactive: -0.032 | inactive: -0.119 | inactive: -0.005 | inactive: -0.033 | inactive: 0.155 | inactive: 0.071 | inactive: 0.077 | inactive: 0.076 | inactive: 0.09 | inactive: 0.049 |
| KMT5A (UniProt Q9NQR1) | inactive: 0.07 | – | – | – | – | – | – | – | – | – |
| KIN (UniProt O60870) | inactive: -0.044 | – | – | – | – | – | – | – | – | – |
| KIAA0319L (UniProt Q8IZA0) | inactive: -0.034 | inactive: 0.023 | inactive: -0.032 | inactive: 0.013 | inactive: 0.011 | inactive: -0.006 | inactive: 0.028 | inactive: -0.002 | inactive: -0.033 | inactive: -0.006 |
| KCTD21 (UniProt Q4G0X4) | inactive: -0.017 | – | – | – | – | – | – | – | – | – |
| KIF5B (UniProt P33176) | inactive: 0.002 | inactive: -0.006 | inactive: -0.004 | inactive: 0.042 | inactive: -0.03 | inactive: 0.037 | inactive: 0.02 | inactive: -0.001 | inactive: -0.024 | inactive: -0.012 |
| IVNS1ABP (UniProt Q9Y6Y0) | inactive: -0.021 | inactive: -0.06 | inactive: 0.012 | inactive: -0.195 | inactive: 0.192 | inactive: 0.038 | inactive: 0.021 | inactive: 0.001 | inactive: 0.107 | inactive: 0.041 |
| KIF13A isoform 4 (UniProt Q9H1H9) | inactive: 0.035 | – | – | – | – | – | – | – | – | – |
| KIAA0100 (UniProt Q14667) | inactive: 0 | inactive: -0.016 | inactive: 0.022 | inactive: -0.058 | inactive: -0.03 | inactive: 0.041 | inactive: -0.035 | inactive: -0.046 | inactive: 0.21 | inactive: 0.057 |

Reference: the supplement of paper PMC10849652
